Laboratory results: PubChem BioAssay AID540276 (National Center for Advancing Translational Sciences (NCATS), 2011)
The campaign covered roughly 300,000 compounds. About 5,400 (1.8%) were called active. Inconclusive means that the source gave no clear call. Such entries were picked first, then a sample of the others. Calls come from the whole dose curve; tested in HEK293 cells. Potencies of inconclusive entries are doubtful fits and often do not repeat.

Assay: qHTS for inhibitors of binding or entry into cells for Marburg Virus
Settings: Marburg virus pseudotyped entry inhibition, cell reporter; activity change, negative = inhibition: at 37.8 µM (top of the series) unless noted
% is set by controls: 0 for no effect and ±100 for the full control effect; potency is the fitted concentration of half-maximal effect.

| SMILES | Potency | activity change, negative = inhibition |
| --- | --- | --- |
| CN1CCN(/N=C/c2c3ccccc3c(Cl)c3ccccc23)CC1 | inconclusive: 20 µM [inhibitor, single point] |  |
| COc1ccc(OC)c(N=CC2=C(O)CC(C)(C)CC2=O)c1 |  | inactive: 0.17% |
| COc1ccc(NC(=O)CN2CCN(Cc3ccccc3Cl)S2(=O)=O)cc1Cl |  | inactive: -19.2% [at 46.1 µM] |
| O=C(NCC1CCCO1)c1cccc(NC(=O)c2ccccc2)c1 (stereo not given) | inconclusive: 6.31 µM [activator, single point] |  |
| COCc1nnc(NC(=O)c2ccc(OC)cc2OC)s1 | inconclusive: 35.5 µM [inhibitor, single point] |  |
| CC/C(Cc1ccccc1)=N/NC(=O)c1cccc(Br)c1 |  | inactive: -13.3% |
| O=C(CN(C(=O)c1nsc(Cl)c1Cl)c1ccc(F)cc1)NC1CCCC1 | inconclusive: 20 µM [inhibitor, single point] |  |
| COc1ccc(CCC(=O)Nc2nc3ccccc3[nH]2)cc1OC |  | inactive: 13.5% |
| CSc1ccccc1OCc1cc(C(=O)N2CCN(Cc3nccn3C)CC2)no1 | inconclusive: 1 µM [activator, full curve, poor fit] |  |
| CCCCc1ccc(-c2nc(NC(=O)C3C4CCC(O4)C3C(=O)O)sc2C)cc1 (stereo not given) |  | inactive: 1.03% |
| Cc1cc(NC(=O)NC(=O)c2ccccc2NC(=O)C(C)N)ccc1Oc1ncc(Br)cn1 (stereo not given) | inconclusive: 1.58 µM [inhibitor, partial curve, poor fit] |  |
| CC(C)CN(CC(C)C)C1=N/C(=C\c2ccco2)C(=O)N1c1ccccc1 | inconclusive: 22.4 µM [inhibitor, partial curve, poor fit] |  |
| COCCN(CCOC)C(=O)CN1C(=O)NC2(CCCc3sccc32)C1=O (stereo not given) |  | inactive: 3.32% [at 46.1 µM] |
| CN1CCc2c(sc(NC(=O)CS(=O)(=O)c3ccc(F)cc3)c2C(N)=O)C1 | inconclusive: 6.31 µM [activator, single point] |  |
| O=C(CCCN1C(=O)/C(=C/c2ccccc2)SC1=S)Nc1ccccc1O | inconclusive: 12.6 µM [inhibitor, single point] |  |
| CC1=NN(c2ccccc2)C(=O)/C1=C/c1c(O)n(-c2ccc(F)c(Cl)c2)[nH]c1=O | inconclusive: 0.794 µM [activator, single point] |  |
| Cc1ccc(NC(=O)Cn2c(=O)n(CC(=O)NCCc3ccccc3)c(=O)c3ccccc32)cc1C |  | inactive: 13.7% [at 46.1 µM] |
| CCOc1ccc(-c2cccc(NS(=O)(=O)c3cc([N+](=O)[O-])ccc3Cl)c2)nn1 |  | inactive: 8.1% |
| COc1cc(OC)cc(C(=O)NCC(=O)Nc2ccc(C)c(Cl)c2)c1 | inconclusive: 10 µM [inhibitor, partial curve, poor fit] |  |
| N#C/C(=C\c1ccccc1O)C(=O)Nc1cccnc1 | inconclusive: 11.2 µM [inhibitor, single point] |  |
| CCOC(=O)CC(NC(=O)c1cc2c(=O)n3cccc(C)c3nc2s1)c1ccc(OCC)c(OC)c1 (stereo not given) |  | inactive: -20.3% [at 46.1 µM] |
| CN(C)S(=O)(=O)c1ccc(NC(=O)N2CCN(c3cccc(C(F)(F)F)c3)CC2)cc1 | inconclusive: 29.1 µM [inhibitor, single point] |  |
| COc1ccc(CN2CCC(n3nccc3NC(=O)C3CC3)CC2)c(Cl)c1OC | inconclusive: 0.631 µM [inhibitor, partial curve, poor fit] |  |

Taken from above for reference:

| SMILES | Potency | activity change, negative = inhibition |
| --- | --- | --- |
| COc1ccc(CCC(=O)Nc2nc3ccccc3[nH]2)cc1OC |  | inactive: 13.5% |
| CSc1ccccc1OCc1cc(C(=O)N2CCN(Cc3nccn3C)CC2)no1 | inconclusive: 1 µM [activator, full curve, poor fit] |  |
| CCCCc1ccc(-c2nc(NC(=O)C3C4CCC(O4)C3C(=O)O)sc2C)cc1 (stereo not given) |  | inactive: 1.03% |
| Cc1cc(NC(=O)NC(=O)c2ccccc2NC(=O)C(C)N)ccc1Oc1ncc(Br)cn1 (stereo not given) | inconclusive: 1.58 µM [inhibitor, partial curve, poor fit] |  |
| CC(C)CN(CC(C)C)C1=N/C(=C\c2ccco2)C(=O)N1c1ccccc1 | inconclusive: 22.4 µM [inhibitor, partial curve, poor fit] |  |
| COCCN(CCOC)C(=O)CN1C(=O)NC2(CCCc3sccc32)C1=O (stereo not given) |  | inactive: 3.32% [at 46.1 µM] |
| CN1CCc2c(sc(NC(=O)CS(=O)(=O)c3ccc(F)cc3)c2C(N)=O)C1 | inconclusive: 6.31 µM [activator, single point] |  |
| O=C(CCCN1C(=O)/C(=C/c2ccccc2)SC1=S)Nc1ccccc1O | inconclusive: 12.6 µM [inhibitor, single point] |  |
| CC1=NN(c2ccccc2)C(=O)/C1=C/c1c(O)n(-c2ccc(F)c(Cl)c2)[nH]c1=O | inconclusive: 0.794 µM [activator, single point] |  |
| Cc1ccc(NC(=O)Cn2c(=O)n(CC(=O)NCCc3ccccc3)c(=O)c3ccccc32)cc1C |  | inactive: 13.7% [at 46.1 µM] |
| CCOc1ccc(-c2cccc(NS(=O)(=O)c3cc([N+](=O)[O-])ccc3Cl)c2)nn1 |  | inactive: 8.1% |
| COc1cc(OC)cc(C(=O)NCC(=O)Nc2ccc(C)c(Cl)c2)c1 | inconclusive: 10 µM [inhibitor, partial curve, poor fit] |  |
| N#C/C(=C\c1ccccc1O)C(=O)Nc1cccnc1 | inconclusive: 11.2 µM [inhibitor, single point] |  |

The list continues.

| SMILES | Potency | activity change, negative = inhibition |
| --- | --- | --- |
| COCCCn1[nH]c2c3c(ccc2c1=O)C(=O)c1ccccc1C3=O | inconclusive: 4.47 µM [inhibitor, full curve, poor fit] |  |
| CCOc1ccccc1N(C)C(=O)c1cc2c(s1)-c1ccccc1OC2 | inconclusive: 5.62 µM [inhibitor, single point] |  |
| c1ccc(CN2CCOCC2)nc1 |  | inactive: 7.88% |
| CC(C)C(=O)NC(=S)Nc1ccccc1N1CCN(C(=O)c2ccc(Cl)cc2)CC1 | inconclusive: 12.6 µM [inhibitor, partial curve, poor fit] |  |
| O=C(NC(=S)N(Cc1ccccc1)Cc1ccccc1)c1ccccc1F | inconclusive: 20.6 µM [inhibitor, single point] |  |
| CC(NC(=O)CCl)c1ccccc1Br (stereo not given) | inconclusive: 8.91 µM [inhibitor, partial curve, poor fit] |  |
| C=C(C)c1cccc(C(C)(C)NC(=O)N2CCN(c3ccc(OC)cc3)CC2)c1 | inconclusive: 11.2 µM [inhibitor, single point] |  |
| O=C(Nc1ccc(-c2cnco2)cc1)c1ccccc1 |  | inactive: 12.9% [at 46.1 µM] |
| Cc1cc(C)n(-c2nc3c(c(=O)[nH]c(=O)n3C)n2CC(O)COc2ccc(Cl)cc2Cl)n1 (stereo not given) | inconclusive: 1.64 µM [inhibitor, full curve] |  |
| CC(C)=CC1C(C(=O)Nc2ccc(S(=O)(=O)N3CCOCC3)cc2)C1(C)C (stereo not given) | inconclusive: 35.5 µM [inhibitor, single point] |  |
| COc1cnc(-c2ccccn2)nc1Sc1ccccc1Cl |  | inactive: -3.09% |
| Nc1nnnn1/N=C/c1ccc(Br)cc1 |  | inactive: -6.36% |
| Cn1c(=O)c2c(nc(CN3CCN(C(=O)c4ccco4)CC3)n2Cc2ccc(Cl)cc2)n(C)c1=O |  | inactive: 17.6% |
| Cc1ccc2c(c1)C(c1ccc([N+](=O)[O-])cc1)=NNC(c1ccc(Br)cc1)=N2 | inconclusive: 6.31 µM [inhibitor, single point] |  |
| Cc1nnc(SCC(=O)N2CC(=O)Nc3ccccc32)n1-c1ccccc1 | inconclusive: 6.51 µM [inhibitor, single point] |  |
| Cc1ccc(NC(=S)NCC2CCCO2)c(OC(F)F)c1 (stereo not given) | inconclusive: 12.6 µM [activator, single point] |  |
| CCCCOc1cccc(C(=O)N(Cc2cccs2)C2CCS(=O)(=O)C2)c1 (stereo not given) | inconclusive: 20 µM [inhibitor, partial curve, poor fit] |  |
| CCOc1ccccc1NC(=O)[C@@H](NC(=O)c1cccc(S(=O)(=O)N2CCOCC2)c1)C(C)C |  | inactive: 19.5% [at 46.1 µM] |
| COC(=O)c1ccc(NC(=O)COc2ccc3c(c2)OCO3)cc1 |  | inactive: -27.2% [at 46.1 µM] |
| CCOc1ccc2nc(SCC3CC3(Cl)Cl)[nH]c2c1 (stereo not given) | inconclusive: 17.8 µM [inhibitor, single point] |  |
| N#CC(C(=O)Nc1ccccc1)=C1Nc2ccccc2N1 |  | inactive: -3.07% |
| Cc1ccc(NC(=O)c2ccn(C)n2)c(Br)c1 | inconclusive: 11.2 µM [inhibitor, partial curve, poor fit] |  |
